Numbering of substitutions follows the chain as printed.

B1: 47Y2, L72A (protein, listed as Rattus norvegicus)
chain: AFDGTWKVDRNENYEKFMEKMGINVVKRKLGAHDNLKLTITQEGNKYTVKESSNFRNIDVVFELGVDFAYSAADGTELTGTWTMEGNKLVGKFKRVDNGKELIAVREISGNELIQTYTYEGVEAKRIFKKE
modifications: PEPTIDE (1)...(131) wild-type rat intestinal fatty acid binding protein
B2: 49L1, 72A (protein, listed as Rattus norvegicus)
chain: B1 chain with Y47F, V49L
modifications: PEPTIDE (1)...(131) wild-type rat intestinal fatty acid binding protein
B3: 49S1, 72A (protein, listed as Rattus norvegicus)
chain: B1 chain with Y47F, V49S
modifications: PEPTIDE (1)...(131) wild-type rat intestinal fatty acid binding protein
B4: 49D1, 72A (protein, listed as Rattus norvegicus)
chain: B1 chain with Y47F, V49D
modifications: PEPTIDE (1)...(131) wild-type rat intestinal fatty acid binding protein
B5: 49T1, 72A (protein, listed as Rattus norvegicus)
chain: B1 chain with Y47F, V49T
modifications: PEPTIDE (1)...(131) wild-type rat intestinal fatty acid binding protein
B6: 49I1, 72A (protein, listed as Rattus norvegicus)
chain: B1 chain with Y47F, V49I
modifications: PEPTIDE (1)...(131) wild-type rat intestinal fatty acid binding protein
B7: 49A1, 72A (protein, listed as Rattus norvegicus)
chain: B1 chain with Y47F, V49A
modifications: PEPTIDE (1)...(131) wild-type rat intestinal fatty acid binding protein
B8: 49N1, 72A (protein, listed as Rattus norvegicus)
chain: B1 chain with Y47F, V49N
modifications: PEPTIDE (1)...(131) wild-type rat intestinal fatty acid binding protein
B9: 49H1, 72A (protein, listed as Rattus norvegicus)
chain: B1 chain with Y47F, V49H
modifications: PEPTIDE (1)...(131) wild-type rat intestinal fatty acid binding protein
B10: 49G1, 72A (protein, listed as Rattus norvegicus)
chain: B1 chain with Y47F, V49G
modifications: PEPTIDE (1)...(131) wild-type rat intestinal fatty acid binding protein
B11: 49R1, 72A (protein, listed as Rattus norvegicus)
chain: B1 chain with Y47F, V49R
modifications: PEPTIDE (1)...(131) wild-type rat intestinal fatty acid binding protein
B12: 49K1, 72A (protein, listed as Rattus norvegicus)
chain: B1 chain with Y47F, V49K
modifications: PEPTIDE (1)...(131) wild-type rat intestinal fatty acid binding protein
B13: 49P1, 72A (protein, listed as Rattus norvegicus)
chain: B1 chain with Y47F, V49P
modifications: PEPTIDE (1)...(131) wild-type rat intestinal fatty acid binding protein
B14: 49M1, 72A (protein, listed as Rattus norvegicus)
chain: B1 chain with Y47F, V49M
modifications: PEPTIDE (1)...(131) wild-type rat intestinal fatty acid binding protein
B15: 49Q, 72A (protein, listed as Rattus norvegicus)
chain: B1 chain with Y47F, V49Q
modifications: PEPTIDE (1)...(131) wild-type rat intestinal fatty acid binding protein
B16: 49C1, 72A (protein, listed as Rattus norvegicus)
chain: B1 chain with Y47F, V49C
modifications: PEPTIDE (1)...(131) wild-type rat intestinal fatty acid binding protein
B17: 49Q1, 72A (protein, listed as Rattus norvegicus)
chain: B1 chain with Y47F, V49Q
modifications: PEPTIDE (1)...(131) wild-type rat intestinal fatty acid binding protein
B18: 49F1, 72A (protein, listed as Rattus norvegicus)
chain: B1 chain with Y47F, V49F
modifications: PEPTIDE (1)...(131) wild-type rat intestinal fatty acid binding protein
B19: 49W1, 72A (protein, listed as Rattus norvegicus)
chain: B1 chain with Y47F, V49W
modifications: PEPTIDE (1)...(131) wild-type rat intestinal fatty acid binding protein
B20: 51C3, 72A (protein, listed as Rattus norvegicus)
chain: B1 chain with Y47F, E51C
modifications: PEPTIDE (1)...(131) wild-type rat intestinal fatty acid binding protein
B21: 49Y1, 72A (protein, listed as Rattus norvegicus)
chain: B1 chain with Y47F, V49Y
modifications: PEPTIDE (1)...(131) wild-type rat intestinal fatty acid binding protein
B22: 51A1, 72A (protein, listed as Rattus norvegicus)
chain: B1 chain with Y47F, E51A
modifications: PEPTIDE (1)...(131) wild-type rat intestinal fatty acid binding protein
B23: 102V, 72A (protein, listed as Rattus norvegicus)
chain: B1 chain with Y47F, L102V
modifications: PEPTIDE (1)...(131) wild-type rat intestinal fatty acid binding protein
B24: 102T, 72A (protein, listed as Rattus norvegicus)
chain: B1 chain with Y47F, L102T
modifications: PEPTIDE (1)...(131) wild-type rat intestinal fatty acid binding protein

One series is described as follows: Baseline fluorescence ratio Ro of probe in absence of analyte. Particulars: average baseline fluorescence ratio Ro of the clone probe; substitutions with respect to SEQ ID NO: 2.
With B1, the AvgOfRo was found to be 0.19. On to B2, for which the AvgOfRo was 0.37. Consider B3, for which the AvgOfRo turned out to be 0.40. The same measure, in the same setting: in the case of B4 it was 0.23; in that of B5, 0.28; in that of B6, 0.36.

For the molecule B7, the AvgOfRo is reported as 0.45. On the same count and under the same terms, in the case of B8 it was 0.35. Same read-out and setting: with B9 the figure was 0.44. For B10, the AvgOfRo was 0.43. The same measure, in the same setting: with B11 the figure was 0.42; with B12, 0.43; with B13, 0.40. Same read-out and setting: with B14 the figure was 0.35; with B15, 0.23. As for B16, the AvgOfRo was determined as 0.29. For the molecule B17, the AvgOfRo is 0.39. B18: the AvgOfRo is 0.39. The same measure, in the same setting: in the case of B19 it was 0.31; in that of B20, 0.42. On the same count and under the same terms, in the case of B21 it was 0.43.

Consider B22, for which the AvgOfRo is given as 0.41.

Staying with this series, now noted: baseline fluorescence ratio of probe, no fatty acid.
With B23, the AvgOfRo is 0.18. Same read-out and setting: with B24 the figure was 0.14.

For the origin of these results see patent US20060257938A1, “Method of screening for drugs that block ligand binding to a lipid binding protein” (priority 2005, published 2006).
